According to paper PMC5512577, “PDE6δ-mediated sorting of INPP5E into the cilium is determined by cargo-carrier affinity” (Nature Communications, 2016):
Results are given in words; binding and its absence hold for the method and conditions named. In cells and extracts the contact can be indirect. Binding can be weak; no strength is given.

By UniProt entry, the sequences of proteins in these tests, tags left out. Where a name states a change or a piece, a line headed by the entry shows the natural chain unless it says otherwise.
UniProt Q9JII1: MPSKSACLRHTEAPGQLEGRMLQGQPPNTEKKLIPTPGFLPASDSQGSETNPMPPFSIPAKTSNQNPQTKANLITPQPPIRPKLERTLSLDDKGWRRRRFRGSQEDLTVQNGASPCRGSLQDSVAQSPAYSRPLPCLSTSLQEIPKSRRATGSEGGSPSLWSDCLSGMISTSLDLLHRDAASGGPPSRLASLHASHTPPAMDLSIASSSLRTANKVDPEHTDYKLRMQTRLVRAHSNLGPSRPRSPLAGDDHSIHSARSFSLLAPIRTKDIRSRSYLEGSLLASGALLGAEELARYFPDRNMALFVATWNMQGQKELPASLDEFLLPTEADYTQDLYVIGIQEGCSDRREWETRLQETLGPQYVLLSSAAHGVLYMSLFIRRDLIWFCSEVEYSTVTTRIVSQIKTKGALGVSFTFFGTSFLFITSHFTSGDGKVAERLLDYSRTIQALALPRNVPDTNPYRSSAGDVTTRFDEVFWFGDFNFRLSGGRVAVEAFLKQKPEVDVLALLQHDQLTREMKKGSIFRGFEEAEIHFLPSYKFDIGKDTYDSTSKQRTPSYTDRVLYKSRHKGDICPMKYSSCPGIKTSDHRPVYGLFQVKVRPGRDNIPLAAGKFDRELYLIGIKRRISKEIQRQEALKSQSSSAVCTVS

Biological target: GST-PDE6δ (UniProt O43924)
Assay: pull-down; GSH-beads with 20 μM GST-PDE6δ incubated 1 h at 4 °C with cleared IMCD3 lysates; then with or without 20 μM Arl2 or Arl3 for 1 h; anti-GFP blot; only the target purified

LAP-tagged mouse INPP5E(KS) (S641K/V643S) (from UniProt Q9JII1)
binding: binds

LAP-tagged mouse INPP5E(WT) (from UniProt Q9JII1)
binding: binds
